From article PMC3394770, “Ipomoelin, a Jacalin-Related Lectin with a Compact Tetrameric Association and Versatile Carbohydrate Binding Properties Regulated by Its N Terminus” (PLoS ONE, 2012)
These are yes or no findings as the source states them, for the method shown.

Biological target: truncated IPO (ΔN10IPO) (sweet potato (Ipomoea batatas cv. Tainung 57)) (UniProt P93193)
Assay: SEC; HiLoad 16/60 Superdex 200; 27 mM Tris-HCl pH 7.0, 2 M NaCl with 1 M glucose (to eliminate binding to the dextran matrix); 2 ml of 0.5 mg/ml protein, 0.6 ml/min; mass from the regression of BioRad standard markers; both purified

B1: truncated IPO (ΔN10IPO) (domain or fragment, UniProt P93193 11-154)
chain: ARSGPVGSNGGQFWSFRPVRPLNKIVLSFSGSPDQTLNLISITFSSNPTDIITVGGVGPEPLTYTETVNIDGDIIEISGMIANYKGYNVIRSIKFTTNKKEYGPYGANAGTPFNIKIPDGNKIVGFFGNSGWYVDAIGAYYTAK
binding: no binding (tested: 0.5 mg/ml)
